Assay [1] concerns the target T1, MKB1ΔC (MAKIBISHI1 devoid of its membrane spanning domain, amino acid 1–237), fused to the GAL4 DNA-binding domain (Medicago truncatula) (UniProt G9CSC7).
T1 sequence: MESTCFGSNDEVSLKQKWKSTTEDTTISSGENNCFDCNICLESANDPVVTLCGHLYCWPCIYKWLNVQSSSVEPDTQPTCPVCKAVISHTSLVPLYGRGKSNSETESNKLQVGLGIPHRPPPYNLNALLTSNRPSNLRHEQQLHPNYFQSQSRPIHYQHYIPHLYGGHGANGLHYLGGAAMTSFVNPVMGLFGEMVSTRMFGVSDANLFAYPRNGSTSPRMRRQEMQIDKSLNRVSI
The assay is described as follows: yeast three-hybrid; MKB1ΔC and HMGR1ΔN as bait and prey, MASH as third protein N-terminally fused to a nuclear localization signal (pMG426-NLS); transformants on SD lacking Leu, Trp and Ura, selective medium lacking His in addition.

The target of assay [2] is T1, MKB1ΔC (MAKIBISHI1 devoid of its membrane spanning domain, amino acid 1–237), fused to the GAL4 DNA-binding domain (Medicago truncatula). Put plainly: two-hybrid; binary assay: bait (MKB1ΔC or RMA1-3ΔC) fused to the GAL4 DNA-binding domain, prey fused to the GAL4 activation domain; 10- and 100-fold dilutions spotted on control medium (-2) and selective medium (-3, lacking His).

Results are given in words; binding and its absence hold for the method and conditions named. For some assays here: A result given as binding can be weak or reduced; the word gives no strength. Where a sequence is shown, tags or fusion partners need not be part of it.

For “M. truncatula HMGR1 devoid of its membrane domain (HMGR1ΔN) (Medicago truncatula) (domain or fragment)”, the binding entry in assay [1] was “no binding”.
“Arabidopsis MASH homolog encoded by At5G64360, fused to the GAL4 activation domain”: the binding entry in assay [2] is on record as “binds”.

The values are drawn from publication PMC7940691.
